# In paper doi:10.64898/2025.12.10.693398:
# The chains behind the UniProt entries cited, without tags or fusion partners.
# UniProt P62814: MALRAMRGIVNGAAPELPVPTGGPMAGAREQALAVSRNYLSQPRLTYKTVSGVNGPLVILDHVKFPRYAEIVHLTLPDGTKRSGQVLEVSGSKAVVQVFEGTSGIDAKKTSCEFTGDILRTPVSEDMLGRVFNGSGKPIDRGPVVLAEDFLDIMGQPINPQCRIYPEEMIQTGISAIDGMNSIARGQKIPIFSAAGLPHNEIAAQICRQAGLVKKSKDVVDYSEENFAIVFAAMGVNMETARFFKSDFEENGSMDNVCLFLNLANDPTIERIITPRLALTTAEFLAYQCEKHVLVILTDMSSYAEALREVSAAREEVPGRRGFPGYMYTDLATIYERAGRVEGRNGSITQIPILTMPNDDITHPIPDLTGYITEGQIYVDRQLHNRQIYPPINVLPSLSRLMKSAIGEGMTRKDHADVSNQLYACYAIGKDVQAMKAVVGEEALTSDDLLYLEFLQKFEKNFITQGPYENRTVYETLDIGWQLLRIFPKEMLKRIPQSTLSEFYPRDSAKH
# UniProt Q9Z1G4: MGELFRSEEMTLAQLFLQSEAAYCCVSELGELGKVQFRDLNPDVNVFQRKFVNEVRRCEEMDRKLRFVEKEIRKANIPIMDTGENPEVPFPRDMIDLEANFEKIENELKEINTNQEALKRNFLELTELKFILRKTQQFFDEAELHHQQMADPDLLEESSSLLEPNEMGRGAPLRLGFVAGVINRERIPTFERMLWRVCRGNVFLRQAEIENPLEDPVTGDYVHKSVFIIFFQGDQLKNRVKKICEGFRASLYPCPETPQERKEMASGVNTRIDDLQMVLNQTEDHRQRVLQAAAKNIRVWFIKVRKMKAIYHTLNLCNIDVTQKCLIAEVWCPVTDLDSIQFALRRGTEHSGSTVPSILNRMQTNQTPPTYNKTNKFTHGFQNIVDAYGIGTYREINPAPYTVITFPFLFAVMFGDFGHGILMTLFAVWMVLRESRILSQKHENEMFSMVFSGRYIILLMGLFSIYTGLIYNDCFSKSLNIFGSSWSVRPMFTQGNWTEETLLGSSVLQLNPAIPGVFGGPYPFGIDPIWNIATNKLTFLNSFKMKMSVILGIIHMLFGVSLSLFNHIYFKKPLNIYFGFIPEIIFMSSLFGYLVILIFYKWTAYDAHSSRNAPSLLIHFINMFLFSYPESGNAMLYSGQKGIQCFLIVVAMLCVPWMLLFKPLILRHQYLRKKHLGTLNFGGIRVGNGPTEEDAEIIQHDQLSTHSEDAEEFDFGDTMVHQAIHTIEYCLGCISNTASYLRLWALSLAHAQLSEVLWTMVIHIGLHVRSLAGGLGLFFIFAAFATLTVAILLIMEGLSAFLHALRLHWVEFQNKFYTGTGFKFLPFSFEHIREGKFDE
# UniProt P15920: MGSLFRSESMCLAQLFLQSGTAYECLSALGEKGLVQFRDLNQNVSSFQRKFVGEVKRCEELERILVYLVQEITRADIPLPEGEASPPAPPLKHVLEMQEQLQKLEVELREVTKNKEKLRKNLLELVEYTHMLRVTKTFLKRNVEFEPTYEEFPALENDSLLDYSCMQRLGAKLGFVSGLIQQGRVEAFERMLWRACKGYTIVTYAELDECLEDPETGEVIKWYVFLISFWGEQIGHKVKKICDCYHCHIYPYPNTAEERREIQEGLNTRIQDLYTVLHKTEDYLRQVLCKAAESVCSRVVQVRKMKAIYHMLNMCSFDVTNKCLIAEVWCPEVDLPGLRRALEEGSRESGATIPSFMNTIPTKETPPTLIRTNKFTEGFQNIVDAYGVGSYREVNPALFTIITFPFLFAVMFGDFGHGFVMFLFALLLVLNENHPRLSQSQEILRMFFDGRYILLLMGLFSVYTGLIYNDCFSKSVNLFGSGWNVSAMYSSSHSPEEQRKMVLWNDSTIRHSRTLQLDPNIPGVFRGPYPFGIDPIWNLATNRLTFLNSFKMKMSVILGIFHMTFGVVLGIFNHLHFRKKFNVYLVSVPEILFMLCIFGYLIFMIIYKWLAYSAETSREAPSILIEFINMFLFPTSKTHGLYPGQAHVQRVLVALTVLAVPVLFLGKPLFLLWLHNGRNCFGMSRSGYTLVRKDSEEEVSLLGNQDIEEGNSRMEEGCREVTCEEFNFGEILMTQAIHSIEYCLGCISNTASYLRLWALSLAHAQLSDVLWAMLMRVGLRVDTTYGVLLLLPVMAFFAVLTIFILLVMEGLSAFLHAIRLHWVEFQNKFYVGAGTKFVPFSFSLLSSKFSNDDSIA
# UniProt Q920I9: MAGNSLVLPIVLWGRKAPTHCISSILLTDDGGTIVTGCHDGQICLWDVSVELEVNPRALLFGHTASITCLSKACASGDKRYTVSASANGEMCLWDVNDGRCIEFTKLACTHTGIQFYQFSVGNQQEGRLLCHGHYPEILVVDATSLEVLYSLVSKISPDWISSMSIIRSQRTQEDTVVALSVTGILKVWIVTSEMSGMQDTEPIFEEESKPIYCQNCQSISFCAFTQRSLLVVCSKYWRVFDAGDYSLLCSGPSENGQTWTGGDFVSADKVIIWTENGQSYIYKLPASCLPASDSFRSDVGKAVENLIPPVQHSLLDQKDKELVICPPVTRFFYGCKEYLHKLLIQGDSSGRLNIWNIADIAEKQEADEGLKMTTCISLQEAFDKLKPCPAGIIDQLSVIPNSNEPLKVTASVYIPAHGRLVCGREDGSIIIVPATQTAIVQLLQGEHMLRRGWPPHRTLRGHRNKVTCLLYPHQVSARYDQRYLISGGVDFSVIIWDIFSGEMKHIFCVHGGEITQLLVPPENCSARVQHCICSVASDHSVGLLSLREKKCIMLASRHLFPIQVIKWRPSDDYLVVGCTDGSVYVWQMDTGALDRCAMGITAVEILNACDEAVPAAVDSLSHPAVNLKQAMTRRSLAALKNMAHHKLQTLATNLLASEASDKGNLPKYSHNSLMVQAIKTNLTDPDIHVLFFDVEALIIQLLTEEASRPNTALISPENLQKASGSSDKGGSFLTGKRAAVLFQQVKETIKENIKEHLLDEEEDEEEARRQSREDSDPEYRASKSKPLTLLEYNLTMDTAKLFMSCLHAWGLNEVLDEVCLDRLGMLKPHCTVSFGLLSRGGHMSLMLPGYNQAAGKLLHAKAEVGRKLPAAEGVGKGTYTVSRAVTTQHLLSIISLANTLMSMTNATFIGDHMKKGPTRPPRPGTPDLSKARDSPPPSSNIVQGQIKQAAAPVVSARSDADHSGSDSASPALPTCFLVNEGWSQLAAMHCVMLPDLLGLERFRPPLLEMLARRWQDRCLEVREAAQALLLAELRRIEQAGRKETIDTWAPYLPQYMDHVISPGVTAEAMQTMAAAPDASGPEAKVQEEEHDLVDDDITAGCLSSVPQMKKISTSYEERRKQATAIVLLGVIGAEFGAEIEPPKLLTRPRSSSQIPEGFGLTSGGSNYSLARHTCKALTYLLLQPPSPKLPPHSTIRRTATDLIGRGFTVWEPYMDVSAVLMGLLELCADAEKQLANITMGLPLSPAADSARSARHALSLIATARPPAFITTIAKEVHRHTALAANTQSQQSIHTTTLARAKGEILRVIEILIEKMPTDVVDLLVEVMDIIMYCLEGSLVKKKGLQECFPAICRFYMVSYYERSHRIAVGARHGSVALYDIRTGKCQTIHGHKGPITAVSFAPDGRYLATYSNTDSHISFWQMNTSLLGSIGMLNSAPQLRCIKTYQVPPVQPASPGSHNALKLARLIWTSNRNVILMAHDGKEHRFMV
# These are yes or no findings as the source states them, for the method shown. In cells and extracts the contact can be indirect. Some entries that bind do so weakly or less than the wild type.
# Molecular target: HA-V1b2 (mouse) (UniProt P62814)
# Experiment: co-IP
row,binding,Substance
1,binds,Flag-Voa1 (from UniProt Q9Z1G4 1-839)
2,binds,Flag-Voa2 (from UniProt P15920 1-856)
3,binds,V5-Wdr7 (from UniProt Q920I9 1-1489)
